Laboratory results reported in patent publication US20160256523A1.
These are yes or no findings as the source states them, for the method shown. Binding seen in cells or lysates may run through a third protein. Some results given as binding are weak or reduced against the parent protein; the word gives no strength.

Chains of the proteins cited; added tags and fusions are not shown. Lines headed by an entry give the natural chain unless they say otherwise; changes in a name come on top. Residues count along the entry.
UniProt P35968, residues 20-1356: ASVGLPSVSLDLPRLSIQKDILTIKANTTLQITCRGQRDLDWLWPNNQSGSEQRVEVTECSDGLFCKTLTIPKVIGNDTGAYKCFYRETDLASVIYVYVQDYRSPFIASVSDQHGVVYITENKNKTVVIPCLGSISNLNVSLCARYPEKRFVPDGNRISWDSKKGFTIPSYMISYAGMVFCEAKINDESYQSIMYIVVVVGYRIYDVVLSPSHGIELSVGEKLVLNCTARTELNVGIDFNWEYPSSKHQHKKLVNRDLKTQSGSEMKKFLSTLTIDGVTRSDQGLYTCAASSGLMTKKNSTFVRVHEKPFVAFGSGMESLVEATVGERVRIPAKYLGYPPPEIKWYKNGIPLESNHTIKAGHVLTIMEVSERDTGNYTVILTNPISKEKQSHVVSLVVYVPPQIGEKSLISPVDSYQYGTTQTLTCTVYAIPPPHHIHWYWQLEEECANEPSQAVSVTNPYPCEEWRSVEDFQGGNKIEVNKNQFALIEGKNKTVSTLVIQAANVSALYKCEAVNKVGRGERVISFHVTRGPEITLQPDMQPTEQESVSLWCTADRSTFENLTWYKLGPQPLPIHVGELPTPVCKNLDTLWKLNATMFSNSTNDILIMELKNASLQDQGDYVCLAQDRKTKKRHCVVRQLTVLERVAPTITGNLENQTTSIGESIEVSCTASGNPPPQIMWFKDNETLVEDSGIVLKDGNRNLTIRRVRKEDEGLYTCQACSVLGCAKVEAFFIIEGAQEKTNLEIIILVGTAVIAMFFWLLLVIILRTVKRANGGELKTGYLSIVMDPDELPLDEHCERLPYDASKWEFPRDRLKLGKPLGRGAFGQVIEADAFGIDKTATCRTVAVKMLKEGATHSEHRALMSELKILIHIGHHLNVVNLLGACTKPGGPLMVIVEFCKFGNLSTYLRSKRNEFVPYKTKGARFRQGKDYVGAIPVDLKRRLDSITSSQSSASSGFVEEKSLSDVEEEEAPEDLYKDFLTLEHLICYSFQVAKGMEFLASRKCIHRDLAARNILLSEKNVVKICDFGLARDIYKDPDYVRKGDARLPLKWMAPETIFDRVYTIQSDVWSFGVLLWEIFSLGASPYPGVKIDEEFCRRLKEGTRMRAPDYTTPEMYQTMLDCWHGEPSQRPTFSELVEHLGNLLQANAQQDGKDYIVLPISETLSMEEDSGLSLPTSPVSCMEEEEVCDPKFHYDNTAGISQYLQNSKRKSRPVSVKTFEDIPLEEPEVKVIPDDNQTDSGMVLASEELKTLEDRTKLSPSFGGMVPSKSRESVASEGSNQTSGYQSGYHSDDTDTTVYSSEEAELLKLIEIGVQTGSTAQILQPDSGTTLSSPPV
UniProt P13612: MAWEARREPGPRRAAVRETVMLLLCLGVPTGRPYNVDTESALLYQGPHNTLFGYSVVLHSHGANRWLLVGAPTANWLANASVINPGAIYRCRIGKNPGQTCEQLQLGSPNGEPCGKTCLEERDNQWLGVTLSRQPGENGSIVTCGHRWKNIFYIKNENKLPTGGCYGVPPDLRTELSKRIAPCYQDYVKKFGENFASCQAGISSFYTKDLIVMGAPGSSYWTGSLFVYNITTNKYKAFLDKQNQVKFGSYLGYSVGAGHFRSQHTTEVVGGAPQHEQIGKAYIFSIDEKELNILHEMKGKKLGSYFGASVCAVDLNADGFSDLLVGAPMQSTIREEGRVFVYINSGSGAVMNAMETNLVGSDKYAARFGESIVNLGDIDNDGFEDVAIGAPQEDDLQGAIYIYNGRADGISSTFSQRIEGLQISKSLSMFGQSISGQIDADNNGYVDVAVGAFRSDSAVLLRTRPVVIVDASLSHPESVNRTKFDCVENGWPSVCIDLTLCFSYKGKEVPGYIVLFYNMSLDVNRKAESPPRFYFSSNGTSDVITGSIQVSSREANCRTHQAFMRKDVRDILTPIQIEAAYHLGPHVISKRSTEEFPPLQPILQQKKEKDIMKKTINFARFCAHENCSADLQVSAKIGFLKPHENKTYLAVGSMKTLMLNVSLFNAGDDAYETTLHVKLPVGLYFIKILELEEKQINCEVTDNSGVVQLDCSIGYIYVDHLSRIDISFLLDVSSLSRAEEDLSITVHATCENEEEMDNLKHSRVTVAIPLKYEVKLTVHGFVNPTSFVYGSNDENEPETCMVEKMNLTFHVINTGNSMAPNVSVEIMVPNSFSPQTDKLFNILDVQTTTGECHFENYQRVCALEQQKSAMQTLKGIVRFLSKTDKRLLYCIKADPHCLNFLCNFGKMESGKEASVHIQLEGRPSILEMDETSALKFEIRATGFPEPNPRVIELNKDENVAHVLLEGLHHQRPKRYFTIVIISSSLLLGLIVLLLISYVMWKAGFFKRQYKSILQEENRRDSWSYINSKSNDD
UniProt P05556: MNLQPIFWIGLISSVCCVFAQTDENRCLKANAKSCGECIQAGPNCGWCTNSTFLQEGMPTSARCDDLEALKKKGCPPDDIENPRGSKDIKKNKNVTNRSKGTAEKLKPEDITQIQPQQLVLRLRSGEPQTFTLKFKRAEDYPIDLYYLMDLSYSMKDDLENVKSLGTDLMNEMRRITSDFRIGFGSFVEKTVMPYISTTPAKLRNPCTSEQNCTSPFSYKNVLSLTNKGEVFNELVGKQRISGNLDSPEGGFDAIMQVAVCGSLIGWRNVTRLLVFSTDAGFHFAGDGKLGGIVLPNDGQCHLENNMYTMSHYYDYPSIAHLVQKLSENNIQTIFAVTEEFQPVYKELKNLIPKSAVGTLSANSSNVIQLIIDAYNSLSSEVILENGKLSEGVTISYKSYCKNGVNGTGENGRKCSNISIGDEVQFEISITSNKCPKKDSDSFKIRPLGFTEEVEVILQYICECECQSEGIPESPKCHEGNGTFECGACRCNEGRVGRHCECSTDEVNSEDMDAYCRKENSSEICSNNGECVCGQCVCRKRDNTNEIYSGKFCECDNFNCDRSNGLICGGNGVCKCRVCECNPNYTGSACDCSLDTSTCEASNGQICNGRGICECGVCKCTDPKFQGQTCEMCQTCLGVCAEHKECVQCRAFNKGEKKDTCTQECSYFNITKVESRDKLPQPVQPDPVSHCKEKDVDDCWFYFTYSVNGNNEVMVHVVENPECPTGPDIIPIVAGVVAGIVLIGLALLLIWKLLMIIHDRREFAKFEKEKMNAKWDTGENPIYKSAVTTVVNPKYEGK

What was measured:
[1] = biological target: vascular endothelial growth factor receptor-2 (VEGFR2), human (human) (UniProt P35968); experiment: competition of GST-S1ED pull-down from CAG lysate, immunoblot
[2] = biological target: VLA-4 (very late antigen-4, α4β1 integrin), human (human) (UniProt P13612+P05556); experiment: as above

Row | binding [1] | binding [2] | Binder
1 | binds |  | ETSGENTAVVAVEPDRRNQSPVDQGAT [S1ED^214-240 peptide]
2 | binds | binds | DFTFETSGENTAVVAVEPDRRNQSPVD [S1ED^210-236 peptide]
